Among the data in article PMC7618375, “Structure and Methyl-lysine Binding Selectivity of the HUSH Complex Subunit MPP8” (Journal of molecular biology, 2024) are binding values, retold here.

These are yes or no findings as the source states them, for the method shown.

The assay concerns the target T1, MPP8 chromodomain (CD, residues 55-116) (human), Q99549.
T1 chain: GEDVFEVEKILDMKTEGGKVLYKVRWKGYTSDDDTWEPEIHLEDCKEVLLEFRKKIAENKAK
Nature of the assay: SEC-MALS; 100 ul of 4 mg/ml MPP8 CD on Superdex 75 10/300; 50 mM HEPES pH 7.5, 0.15 M NaCl, 0.5 mM TCEP, 293 K; both purified. The settings on record: remark: other sources report otherwise.

B1: MPP8 chromodomain (CD, residues 55-116), Q99549 55-116 (domain or fragment)
chain: T1 chain
In the case of B1, the binding result is given as “no binding (tested: 4 mg ml^−1)”.
